From PubChem BioAssay AID1671190 (National Center for Advancing Translational Sciences (NCATS), 2021)
The campaign covered roughly 580,000 compounds. About 6,100 (1.1%) were called active. This list was built around the results that the source calls inconclusive (neither active nor inactive); the mix of calls is not that of the screen. Calls come from the whole dose curve; as a rule, active = well fitted inhibition curve with a large enough effect; inconclusive = small, poorly fitted or top-dose-only effect, or another doubt; inactive = no such curve, though single readings can be large or run the other way. A potency beside an inconclusive call is a rough fit, not a confirmed value.

Protein sequences, listed by entry. Tags and fused reporters are not part of them. Lines headed by an entry give the natural chain unless they say otherwise; changes in a name come on top.
UniProt P18054: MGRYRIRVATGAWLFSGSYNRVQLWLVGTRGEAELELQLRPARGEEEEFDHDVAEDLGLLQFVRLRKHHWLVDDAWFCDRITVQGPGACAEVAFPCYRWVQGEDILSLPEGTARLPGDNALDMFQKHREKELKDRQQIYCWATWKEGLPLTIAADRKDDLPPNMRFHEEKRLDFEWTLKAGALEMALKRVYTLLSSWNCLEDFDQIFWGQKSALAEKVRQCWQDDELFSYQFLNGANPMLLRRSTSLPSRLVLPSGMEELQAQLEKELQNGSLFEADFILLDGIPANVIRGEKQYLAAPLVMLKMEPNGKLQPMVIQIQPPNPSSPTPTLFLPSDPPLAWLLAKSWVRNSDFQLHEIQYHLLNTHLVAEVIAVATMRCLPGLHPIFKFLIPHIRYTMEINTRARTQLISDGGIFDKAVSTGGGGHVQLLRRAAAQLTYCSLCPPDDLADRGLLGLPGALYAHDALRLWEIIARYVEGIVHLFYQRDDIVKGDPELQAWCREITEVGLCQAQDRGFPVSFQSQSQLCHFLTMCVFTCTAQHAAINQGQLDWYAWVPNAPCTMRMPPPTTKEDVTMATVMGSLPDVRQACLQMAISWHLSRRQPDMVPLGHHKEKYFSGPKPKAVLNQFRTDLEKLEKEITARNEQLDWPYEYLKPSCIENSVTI

The molecules below were run against Polyunsaturated fatty acid lipoxygenase ALOX12 (Homo sapiens) (UniProt P18054) (assay: Primary qHTS assay for inhibitors of human arachidonate 12S-lipoxygenase (ALOX12): Round 2). Conditions: purified 12hLO, xylenol orange hydroperoxide absorbance; activity change, negative = inhibition: at 108 µM (top of the series) unless noted.
Summary of the method: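 Hydroperoxide product was detected by ferrous iron/xylenol orange as the 573 to 405 nm absorbance ratio. Arachidonic acid at 40 uM (final) was turned over for 30 min at room temperature by 150 nM human 12hLO, pH 7.0 Hepes buffer, after 15 min compound preincubation.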
% is set by controls: 0 for no effect and ±100 for the full control effect; potency is the fitted concentration of half-maximal effect.

| SMILES | Potency | activity change, negative = inhibition |
| --- | --- | --- |
| O=S(=O)(Cc1ccccc1)N1CCC(c2nc(CCOc3ccc(F)cc3)no2)C1 (stereo not drawn) | inactive | – |
| CCC(C)NC(=O)c1cc(-c2ccc3c(c2)OCO3)on1 (stereo not drawn) | inactive | – |
| Cc1ccc(CNC(=O)c2ccc3c(O)c(S(=O)(=O)c4ccc(Cl)cc4)c(=O)[nH]c3c2)cc1 | inconclusive: 112 µM [inhibitor, single point] | – |
| CC(C)(CO)NC(=O)c1ccc2c(c1)C(=O)c1ccccc1-2 | inactive | – |
| CN(Cc1ccco1)c1cc(-c2ccoc2)ncn1 | inconclusive: 7.08 µM [inhibitor, full curve] | – |
| NC1=NC(=O)C(Cc2ccc(F)cc2)S1 (stereo not drawn) | inconclusive: 44.7 µM [inhibitor, partial curve, poor fit] | – |
| CCc1nnc([C@@H]2CC(F)(F)CN2C(=O)COc2ccccc2)o1 | inactive | – |
| CCC(=O)Oc1ccc2c(=O)c(-c3ccccc3OC)coc2c1 | inconclusive: 7.08 µM [inhibitor, full curve, poor fit] | – |
| O=[N+]([O-])c1cc(-c2nc(-c3ccccc3)no2)ccc1N1CCOCC1 | inactive | – |
| Cc1c(CC(=O)NCCCCCC(=O)O)c(=O)oc2cc3c(cc12)CCC(C)(C)O3 | inactive | – |
| CN(C)C(=O)c1nc2ccc(Cl)cn2c1CNCc1cccc(OC(F)(F)F)c1 | inactive | – |
| CC[n+]1c(NCc2cc(Br)cc(Br)c2[O-])[nH]c2ccccc21 | – | inconclusive: -57% [inhibitor] |
| O=C(Nc1ccccc1N1CCN(C(=O)c2ccccc2)CC1)c1ccc(Br)o1 | inconclusive: 100 µM [inhibitor, partial curve, poor fit] | – |
| O=C(CCCN1C(=O)/C(=C/c2ccccc2)SC1=S)N1CCOCC1 | inactive | – |
| COc1ccc(-c2nc(CNS(=O)(=O)c3cccc(F)c3)cs2)cc1 | inactive | – |
| O=C(Nc1ccc(NC(=O)c2cc([N+](=O)[O-])ccc2N2CCOCC2)cc1)c1cccs1 | inactive | – |
| COC(=O)c1cc(OC(=O)CCc2ccc(OC)c(OC)c2)cc(C(=O)OC)c1 | inconclusive: 112 µM [inhibitor, single point] | – |
| N#Cc1ncc(-c2ccc3c(c2)OCCOCCOCCOCCO3)nc1C#N | inconclusive: 50.1 µM [inhibitor, partial curve, poor fit] | – |
| COc1ccc2cc(C3CC(c4ccco4)=NN3S(=O)(=O)c3ccccc3)c(Cl)nc2c1 (stereo not drawn) | inconclusive: 39.8 µM [inhibitor, partial curve] | – |
| CCOC(=O)C[C@H]1c2ccccc2S(=O)(=O)N1c1cccc(OC)c1 | inactive | – |
| CCOC(=O)C1C(=O)C=C(/C=C/c2ccco2)CC1c1ccccc1 (stereo not drawn) | active: 6.31 µM | – |
| CC(=O)Nc1cnc(-c2ccccc2O)cn1 | inconclusive: 70.8 µM [inhibitor, partial curve, poor fit] | – |
| CC1CCN(C(=O)c2nn(C)c(=O)c3ccccc23)c2ccccc2S1 (stereo not drawn) | inactive | – |

Complete entries from above. Values in the order: Potency | activity change, negative = inhibition
O=C(CCCN1C(=O)/C(=C/c2ccccc2)SC1=S)N1CCOCC1 is listed with inactive | –
CCc1nnc([C@@H]2CC(F)(F)CN2C(=O)COc2ccccc2)o1 is listed with inactive | –
O=C(Nc1ccc(NC(=O)c2cc([N+](=O)[O-])ccc2N2CCOCC2)cc1)c1cccs1 is listed with inactive | –

Next structures follow.

| SMILES | Potency | activity change, negative = inhibition |
| --- | --- | --- |
| CCn1c(-c2cccc(Br)c2)n[nH]c1=S | inconclusive: 15.8 µM [inhibitor, full curve, poor fit] | – |
| O=c1oc2ccccc2cc1-c1nc2ccccc2o1 | inactive | – |
| COc1cc(C(C)C)c2c(c1)S(=O)(=O)N(COc1cc(=O)n3cccc(OCCN4CCCCC4)c3n1)C2=O | inconclusive: 9.68 µM [inhibitor, partial curve, poor fit] | – |
| COc1cc2nc(NC(=O)c3ccc(Cl)cc3)[nH]c(=O)c2cc1OC | inconclusive: 126 µM [inhibitor, partial curve, poor fit] | – |
| CC(C)CNc1nc(N)c([N+](=O)[O-])c(N2CCCCCC2)n1 | inconclusive: 100 µM [inhibitor, single point] | – |
| CN(C)C(=O)c1cc([N+](=O)[O-])ccc1O | inconclusive: 2.51 µM [inhibitor, full curve, poor fit] | – |
| Cc1ccc(Nc2sc(C(=O)c3ccccc3)c(N)c2C(N)=O)cc1 | inconclusive: 50.1 µM [inhibitor, partial curve, poor fit] | – |
| CCCCCCOc1ccc(-c2ccc(C#N)cn2)cc1 | inactive | – |
| O=C(NCc1cccs1)c1ccc2c(c1)OCCN(c1ccccc1)C2 | inconclusive: 5.62 µM [inhibitor, full curve, poor fit] | – |
| O=C(c1cnsn1)N1CCN(c2ccccn2)CC1 | inconclusive: 7.08 µM [inhibitor, partial curve, poor fit] | – |
| Cc1ccc(NC(=O)CN2C(=O)NC3(CCOCC3)C2=O)cc1C | inconclusive: 8.91 µM [inhibitor, partial curve, poor fit] | – |
| Cc1cnc(CNc2cc(-c3ccccc3CN(C)C)ncn2)cn1 | inconclusive: 2.51 µM [inhibitor, full curve] | – |
| CN(C)CCNC(=O)C(=O)Nc1cc2c3c(c1)CCC(=O)N3CCC2 | inactive | – |
| COc1cccc(-c2nn3c(-c4ccco4)nnc3s2)c1 | inconclusive: 35.5 µM [inhibitor, partial curve] | – |
| COC(=O)c1ccc2c(c1)S(=O)(=O)NC(=NCCCN1CCOCC1)S2 | inconclusive: 35.5 µM [inhibitor, single point] | – |
| Cc1noc(C)c1-c1nc(N2CCNCC2)c2ccccc2n1 | inactive | – |
| CC(=O)N1CCc2cc(NC(=O)CNc3ccccc3OC(F)F)ccc21 | inactive | – |
| COc1cc(C)c(Br)cc1S(=O)(=O)NCCCN1CCOCC1 | inconclusive: 126 µM [inhibitor, partial curve, poor fit] | – |
| CCCNc1c(NC(=O)Nc2ccccc2F)c(=O)oc2ccccc12 | inactive | – |
| CC(=O)Nc1ccc(N/C=C(\C#N)c2nc(C3CC3)cs2)cc1 | inconclusive: 50.1 µM [inhibitor, partial curve, poor fit] | – |
| COc1cccc(-c2cc3c(=O)n(CCNC(=O)c4nn(C)c5ccccc45)ccn3n2)c1 | inconclusive: 31.6 µM [inhibitor, partial curve] | – |
| O=C1/C(=C/c2cccc(F)c2)CSc2ccc(F)cc21 | inactive | – |
| Cc1cc(N2C(=O)C(=O)/C(=C(/O)c3ccc(F)cc3)C2c2cccc(Br)c2)no1 (stereo not drawn) | inconclusive: 1 µM [inhibitor, full curve, poor fit] | – |

| SMILES | Potency | activity change, negative = inhibition |
| --- | --- | --- |
| CN(C)c1nc2c(c(=O)[nH]1)CCN(Cc1cccc(Cl)c1)CC2 | inactive | – |
| Cc1ccc2c(c1)N(CC(=O)N(Cc1ccccn1)Cc1ccco1)C(=O)C(C(C)C)O2 (stereo not drawn) | inconclusive: 79.4 µM [inhibitor, partial curve, poor fit] | – |
| CCOc1ccc(C2NC(=O)NC(CS(=O)(=O)c3cc(Cl)ccc3OC)=C2C(=O)OC)cc1 (stereo not drawn) | inconclusive: 56.2 µM [inhibitor, partial curve, poor fit] | – |
| O=C(O)CCC(=O)N1Cc2ccccc2CC2(CCCN(Cc3cccnc3)C2)C1 (stereo not drawn) | inconclusive: 89.1 µM [inhibitor, partial curve, poor fit] | – |
| CCN(CC)CCOC(=O)c1ccc(NC(=O)CCCN2C(=O)/C(=C\c3cccs3)SC2=S)cc1 | inconclusive: 50.1 µM [inhibitor, partial curve, poor fit] | – |
| Cc1cc2cc(C#N)c(N3CCN(S(C)(=O)=O)CC3)nc2cc1C | inconclusive: 35.5 µM [inhibitor, partial curve] | – |
| COc1cc(OC)c(-c2nc3ccc(-c4ccc(OC)c(OC)c4OC)cc3o2)cc1OC | inconclusive: 8.91 µM [inhibitor, full curve] | – |
| O=C(Cn1cnc2onc(-c3ccc(Cl)cc3)c2c1=O)Nc1ccc(F)cc1 | active: 44.7 µM | – |
| Cc1noc(NS(=O)(=O)c2ccc(N/C=C\C(=O)c3ccccc3)cc2)c1C | inconclusive: 0.562 µM [inhibitor, full curve, poor fit] | – |
| O=C(CN(C(=O)CNS(=O)(=O)c1ccc(F)cc1)c1cccc(F)c1)NCC1CCCO1 (stereo not drawn) | inactive | – |
| CCOC(=O)c1c(NC(=O)COc2ccc3c(c2)OCO3)sc(C)c1C | inactive | – |
| CC(C)CC(CC(C)C)=NNC(=O)c1ccc(CSc2nncn2C)cc1 | inconclusive: 25.1 µM [inhibitor, single point] | – |
| Cc1ccc(Nc2nc(NCc3cccs3)nc3ccsc23)c(C)c1 | inconclusive: 50.1 µM [inhibitor, partial curve, poor fit] | – |
| COC(=O)c1c(-c2ccc3ccccc3c2)csc1NC(=O)Cc1ccc(OC)c(OC)c1 | inconclusive: 35.5 µM [inhibitor, partial curve, poor fit] | – |
| CC(C)n1c(NCc2c[nH]c3ccccc23)nc2ccccc21 | inconclusive: 112 µM [inhibitor, partial curve, poor fit] | – |
| Cc1ccc(S(=O)(=O)N(CCc2ccccc2)CC(=O)Nc2ccc(Br)cc2)cc1 | inactive | – |
| CCCn1c(CN2CCCCCC2)nc2cc(NC(=O)c3ccccc3)ccc21 | inactive | – |
| CCn1c(=O)c(C(=O)CN(C)Cc2cccc(OC)c2OC)c(N)n(Cc2ccccc2)c1=O | inconclusive: 1.12 µM [inhibitor, full curve, poor fit] | – |
| COc1ccc(C2/C(=C(/O)c3ccccc3)C(=O)C(=O)N2CCCN2CCOCC2)cc1 (stereo not drawn) | inconclusive: 5.62 µM [inhibitor, full curve, poor fit] | – |
| O=C(Cn1nc2ccccc2n1)N/N=C/c1cc([N+](=O)[O-])ccc1O | inconclusive: 35.5 µM [inhibitor, partial curve, poor fit] | – |
| O=[N+]([O-])c1nn(-c2cccc(Cl)c2)n(O)c1=NCc1cccnc1 | inactive | – |
| C/C(=N\NC(=O)c1ccc(C)cc1)c1c(C)[nH]n(-c2ccccc2)c1=O | inconclusive: 50.1 µM [inhibitor, partial curve, poor fit] | – |

Structures from the list above that contain a COOH group:

| SMILES | Potency | activity change, negative = inhibition |
| --- | --- | --- |
| Cc1c(CC(=O)NCCCCCC(=O)O)c(=O)oc2cc3c(cc12)CCC(C)(C)O3 | inactive | – |
| O=C(O)CCC(=O)N1Cc2ccccc2CC2(CCCN(Cc3cccnc3)C2)C1 (stereo not drawn) | inconclusive: 89.1 µM [inhibitor, partial curve, poor fit] | – |
